PubChem BioAssay AID1224830 – NIAID – 2016

Purpose: 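Genes whose knock-down alters the TNF-alpha reporter response to LPS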 (primary screen)
Cell system: human THP-1 monocytic leukaemia cells, TNF dual-luciferase reporter clone, PMA-differentiated to macrophage-like cells
Reagents: siRNA pool against human genes, 50 nM
Timing: LPS for 4 h, given about 3 days after siRNA transfection
Challenge: bacterial LPS (TLR4 ligand), 10 ng/ml
Measured: 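Ratio of firefly to renilla light, scaled to the plate median and expressed as a robust z-score per replicate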
Reading the numbers: TNF reporter robust z-score: higher = stronger TNF reporter response to LPS
Call rule: 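a well is active when its z-score exceeds 2.8 or falls below -1.5; control wells carry no call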
The deposit covers about 18,000 reagents; this is a random part of them. Of all reagents, about 2,900 (16%) are marked active. 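Calls are made per well; low scores hint the gene aids the LPS response, high scores that it dampens it.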 A number with no mark means an inactive call. Repeated entries: four replicate wells of each siRNA pool.

target | PubChem SID | TNF reporter robust z-score
H2BC12 | SID315460645 | -0.6
H2BC12 | SID315460645 | -0.9
H2BC12 | SID315460645 | -0.73
H2BC12 | SID315460645 | 1.08
WFDC1 | SID315458616 | -0.09
WFDC1 | SID315458616 | -1.05
WFDC1 | SID315458616 | -1.41
WFDC1 | SID315458616 | -1.25
BBS7 | SID315457501 | 0.64
BBS7 | SID315457501 | 0.55
BBS7 | SID315457501 | 0.04
BBS7 | SID315457501 | 2.06
UBE2NL | SID315464588 | 0.15
UBE2NL | SID315464588 | 0.51
UBE2NL | SID315464588 | 1.47
UBE2NL | SID315464588 | 1
AAAS | SID315452395 | -0.48
AAAS | SID315452395 | -0.27
AAAS | SID315452395 | 0.24
AAAS | SID315452395 | -0.39
SPINT1 | SID315451605 | -1.68 (active)
SPINT1 | SID315451605 | 0.13
SPINT1 | SID315451605 | -0.39
SPINT1 | SID315451605 | 0.87
HEATR3 | SID315457355 | 0.62
HEATR3 | SID315457355 | 0.18
HEATR3 | SID315457355 | -0.14
HEATR3 | SID315457355 | -0.16

Additional records follow.
target | PubChem SID | TNF reporter robust z-score
PARVB | SID315456172 | 0.56
PARVB | SID315456172 | 0.71
PARVB | SID315456172 | -0.59
COQ8A | SID315458217 | 0.63
COQ8A | SID315458217 | -0.33
COQ8A | SID315458217 | 0
COQ8A | SID315458217 | 0.52
RAB3C | SID315461332 | -0.09
RAB3C | SID315461332 | -0.42
RAB3C | SID315461332 | -0.52
RAB3C | SID315461332 | -1.01
ZNF343 | SID315459247 | -1.99 (active)
ZNF343 | SID315459247 | -1.75 (active)
ZNF343 | SID315459247 | -1.79 (active)
ZNF343 | SID315459247 | -1.78 (active)
CDK2 | SID315447843 | 0.21
CDK2 | SID315447843 | 1.96
CDK2 | SID315447843 | 0.34
CDK2 | SID315447843 | 1.08
